# Source: paper doi:10.1101/2025.11.12.688075
# Chains of the proteins cited; added tags and fusions are not shown. Residues count along the entry.
# UniProt E9Q414, residues 28-4505: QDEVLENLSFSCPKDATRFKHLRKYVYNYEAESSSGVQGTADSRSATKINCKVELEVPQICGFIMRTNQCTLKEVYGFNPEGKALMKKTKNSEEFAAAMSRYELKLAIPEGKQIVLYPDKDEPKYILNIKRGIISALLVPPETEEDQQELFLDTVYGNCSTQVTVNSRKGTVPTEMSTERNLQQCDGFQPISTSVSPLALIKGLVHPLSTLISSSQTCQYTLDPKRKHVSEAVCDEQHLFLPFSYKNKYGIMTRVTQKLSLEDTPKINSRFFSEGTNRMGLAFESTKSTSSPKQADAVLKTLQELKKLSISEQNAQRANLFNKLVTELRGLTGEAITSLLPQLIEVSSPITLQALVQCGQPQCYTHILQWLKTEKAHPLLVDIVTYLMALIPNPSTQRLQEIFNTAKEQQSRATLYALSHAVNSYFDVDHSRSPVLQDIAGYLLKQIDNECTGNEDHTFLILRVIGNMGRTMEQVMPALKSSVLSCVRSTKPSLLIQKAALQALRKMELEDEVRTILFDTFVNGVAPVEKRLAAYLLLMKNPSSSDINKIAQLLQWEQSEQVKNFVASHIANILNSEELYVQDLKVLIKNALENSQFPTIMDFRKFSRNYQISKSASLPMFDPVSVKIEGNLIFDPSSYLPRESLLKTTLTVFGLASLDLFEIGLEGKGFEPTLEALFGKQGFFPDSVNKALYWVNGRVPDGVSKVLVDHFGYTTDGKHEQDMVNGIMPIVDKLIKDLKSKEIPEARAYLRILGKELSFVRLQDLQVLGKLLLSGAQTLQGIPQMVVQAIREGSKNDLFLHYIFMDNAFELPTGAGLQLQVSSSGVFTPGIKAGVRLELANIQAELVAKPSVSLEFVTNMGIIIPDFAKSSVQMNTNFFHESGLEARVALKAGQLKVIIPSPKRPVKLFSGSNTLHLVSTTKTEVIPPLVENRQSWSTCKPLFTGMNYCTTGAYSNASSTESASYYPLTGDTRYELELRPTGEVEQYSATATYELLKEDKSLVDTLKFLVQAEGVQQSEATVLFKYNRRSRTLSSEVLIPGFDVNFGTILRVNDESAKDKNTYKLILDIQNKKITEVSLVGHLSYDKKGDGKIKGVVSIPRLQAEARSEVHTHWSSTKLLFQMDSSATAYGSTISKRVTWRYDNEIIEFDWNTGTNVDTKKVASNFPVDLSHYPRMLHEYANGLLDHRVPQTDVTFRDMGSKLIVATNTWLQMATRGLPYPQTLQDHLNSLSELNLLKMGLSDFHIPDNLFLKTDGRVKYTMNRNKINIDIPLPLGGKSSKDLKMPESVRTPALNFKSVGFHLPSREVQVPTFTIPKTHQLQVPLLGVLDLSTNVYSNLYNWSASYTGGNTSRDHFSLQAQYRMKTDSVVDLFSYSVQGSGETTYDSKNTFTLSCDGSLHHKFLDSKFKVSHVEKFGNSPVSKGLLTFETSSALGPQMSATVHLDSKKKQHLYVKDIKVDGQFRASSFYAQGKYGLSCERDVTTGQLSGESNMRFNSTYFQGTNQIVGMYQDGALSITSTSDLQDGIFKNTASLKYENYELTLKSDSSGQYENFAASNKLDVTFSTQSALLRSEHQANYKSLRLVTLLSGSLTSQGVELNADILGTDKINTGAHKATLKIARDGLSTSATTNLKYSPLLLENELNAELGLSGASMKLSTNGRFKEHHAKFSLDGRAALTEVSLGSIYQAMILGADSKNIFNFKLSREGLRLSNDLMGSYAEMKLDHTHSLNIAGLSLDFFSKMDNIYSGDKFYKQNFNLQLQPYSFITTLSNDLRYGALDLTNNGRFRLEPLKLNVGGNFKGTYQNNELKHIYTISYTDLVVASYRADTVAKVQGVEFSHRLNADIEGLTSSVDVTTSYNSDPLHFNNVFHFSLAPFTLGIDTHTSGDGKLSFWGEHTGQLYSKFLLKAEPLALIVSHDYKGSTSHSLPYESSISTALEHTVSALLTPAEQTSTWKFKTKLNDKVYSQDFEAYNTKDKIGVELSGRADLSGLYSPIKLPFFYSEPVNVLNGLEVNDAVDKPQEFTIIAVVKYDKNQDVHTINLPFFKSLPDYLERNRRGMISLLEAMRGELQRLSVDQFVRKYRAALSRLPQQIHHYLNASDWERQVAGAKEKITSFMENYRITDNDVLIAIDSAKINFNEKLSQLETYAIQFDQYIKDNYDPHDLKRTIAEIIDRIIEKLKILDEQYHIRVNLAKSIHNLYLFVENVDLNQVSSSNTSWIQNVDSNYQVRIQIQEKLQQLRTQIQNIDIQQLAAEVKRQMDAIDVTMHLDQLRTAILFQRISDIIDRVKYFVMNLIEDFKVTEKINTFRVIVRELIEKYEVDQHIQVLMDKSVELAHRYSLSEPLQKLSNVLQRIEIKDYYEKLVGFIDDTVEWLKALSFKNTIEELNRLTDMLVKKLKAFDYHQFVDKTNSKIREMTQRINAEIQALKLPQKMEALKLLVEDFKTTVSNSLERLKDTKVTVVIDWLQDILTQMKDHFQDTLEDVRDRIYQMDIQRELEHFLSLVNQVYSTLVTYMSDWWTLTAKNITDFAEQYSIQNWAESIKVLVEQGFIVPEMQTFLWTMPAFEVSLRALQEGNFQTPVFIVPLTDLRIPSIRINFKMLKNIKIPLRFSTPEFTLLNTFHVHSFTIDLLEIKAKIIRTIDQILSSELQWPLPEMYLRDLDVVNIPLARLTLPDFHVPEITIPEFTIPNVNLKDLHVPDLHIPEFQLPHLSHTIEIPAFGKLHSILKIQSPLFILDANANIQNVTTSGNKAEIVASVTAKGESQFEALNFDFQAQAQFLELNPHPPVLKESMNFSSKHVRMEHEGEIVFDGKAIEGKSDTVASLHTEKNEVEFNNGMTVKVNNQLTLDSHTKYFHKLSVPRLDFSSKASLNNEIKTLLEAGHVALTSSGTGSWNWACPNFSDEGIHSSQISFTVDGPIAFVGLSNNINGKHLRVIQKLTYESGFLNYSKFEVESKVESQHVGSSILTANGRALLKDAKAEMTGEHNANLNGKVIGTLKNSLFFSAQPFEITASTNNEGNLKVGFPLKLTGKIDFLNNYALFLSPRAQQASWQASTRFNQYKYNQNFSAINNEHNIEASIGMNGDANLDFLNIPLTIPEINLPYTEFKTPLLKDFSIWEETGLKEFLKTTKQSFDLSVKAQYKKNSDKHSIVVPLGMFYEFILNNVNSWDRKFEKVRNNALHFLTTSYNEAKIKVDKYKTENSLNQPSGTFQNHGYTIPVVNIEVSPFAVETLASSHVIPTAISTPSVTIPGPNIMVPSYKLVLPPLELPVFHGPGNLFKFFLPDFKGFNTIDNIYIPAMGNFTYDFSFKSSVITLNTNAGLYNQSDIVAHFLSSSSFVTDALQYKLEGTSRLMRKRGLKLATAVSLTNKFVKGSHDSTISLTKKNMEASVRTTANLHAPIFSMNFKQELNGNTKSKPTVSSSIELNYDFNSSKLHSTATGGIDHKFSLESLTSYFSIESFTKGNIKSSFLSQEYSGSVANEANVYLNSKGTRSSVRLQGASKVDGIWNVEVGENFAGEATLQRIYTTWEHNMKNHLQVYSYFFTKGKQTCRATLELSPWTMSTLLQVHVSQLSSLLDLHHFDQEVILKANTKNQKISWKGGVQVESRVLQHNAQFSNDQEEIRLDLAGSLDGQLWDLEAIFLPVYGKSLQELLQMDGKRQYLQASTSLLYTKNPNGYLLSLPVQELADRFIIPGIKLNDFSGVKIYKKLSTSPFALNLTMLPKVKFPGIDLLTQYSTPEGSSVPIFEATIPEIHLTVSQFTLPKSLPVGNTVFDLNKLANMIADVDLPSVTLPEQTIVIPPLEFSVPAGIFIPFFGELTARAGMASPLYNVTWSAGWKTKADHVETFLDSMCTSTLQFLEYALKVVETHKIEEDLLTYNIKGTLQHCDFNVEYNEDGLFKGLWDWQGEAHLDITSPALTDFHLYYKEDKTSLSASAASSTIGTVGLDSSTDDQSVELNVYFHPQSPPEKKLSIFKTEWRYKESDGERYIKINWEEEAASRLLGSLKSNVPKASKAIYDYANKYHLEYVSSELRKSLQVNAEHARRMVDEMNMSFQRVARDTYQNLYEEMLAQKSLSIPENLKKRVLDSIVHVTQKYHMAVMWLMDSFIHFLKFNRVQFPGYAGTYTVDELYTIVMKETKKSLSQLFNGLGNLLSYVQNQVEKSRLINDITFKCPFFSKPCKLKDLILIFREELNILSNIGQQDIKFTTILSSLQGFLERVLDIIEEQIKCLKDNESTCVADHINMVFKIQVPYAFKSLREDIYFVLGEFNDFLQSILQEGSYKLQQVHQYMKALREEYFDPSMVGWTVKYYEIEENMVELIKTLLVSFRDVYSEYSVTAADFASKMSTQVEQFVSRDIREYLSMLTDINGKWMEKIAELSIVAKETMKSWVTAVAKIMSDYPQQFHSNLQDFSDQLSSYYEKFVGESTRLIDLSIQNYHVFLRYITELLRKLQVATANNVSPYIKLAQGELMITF
# Read-outs that look alike come from different tables or passages of the source. No constants are given. Whether binding was seen depends on the method and setting. Binding seen in cells or lysates may run through a third protein. A yes stands for co-enrichment or nearness to the bait. Other partners may have been found. A no says only that the protein was not detected with the bait.
# T1: TurboID-FGF13-S (human) (UniProt Q92913)
# T1 sequence: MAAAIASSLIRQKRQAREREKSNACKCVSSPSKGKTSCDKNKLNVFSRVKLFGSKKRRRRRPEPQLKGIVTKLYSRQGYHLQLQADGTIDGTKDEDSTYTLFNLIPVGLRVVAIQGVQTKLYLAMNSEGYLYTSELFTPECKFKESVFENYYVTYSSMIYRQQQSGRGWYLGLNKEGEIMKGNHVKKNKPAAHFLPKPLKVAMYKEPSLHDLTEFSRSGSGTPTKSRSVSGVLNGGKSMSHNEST
# Assays:
# TurboID-FGF13-S (human) [1] = target: T1, TurboID-FGF13-S (human); test: proximity labelling
# TurboID-FGF13-S (human) [2] = target: T1, TurboID-FGF13-S (human); test: proximity labelling; remark: listed apart in the source
binding (TurboID-FGF13-S (human) [1]),binding (TurboID-FGF13-S (human) [2]),Molecule
no binding,,APOB (from UniProt E9Q414 28-4505)
,no binding,"TEC kinase (protein, UniProt P24604 1-630) MNFNTILEEILIKRSQQKKKTSLLNYKERLCVLPKSVLSYYEGRAEKKYRKGVIDISKIKCVEIVKNDDGVIPCQNKFPFQVVHDANTLYIFAPSPQSRDRWVKKLKEEIKNNNNIMIKYHPKFWADGSYQCCRQTEKLAPGCEKYNLFESSIRKTLPPAPEIKKRRPPPPIPPEEENTEEIVVAMYDFQATEAHDLRLERGQEYIILEKNDLHWWRARDKYGSEGYIPSNYVTGKKSNNLDQYEWYCRNTNRSKAEQLLRTEDKEGGFMVRDSSQPGLYTVSLYTKFGGEGSSGFRHYHIKETATSPKKYYLAEKHAFGSIPEIIEYHKHNAAGLVTRLRYPVSTKGKNAPTTAGFSYDKWEINPSELTFMRELGSGLFGVVRLGKWRAQYKVAIKAIREGAMCEEDFIEEAKVMMKLTHPKLVQLYGVCTQQKPIYIVTEFMERGCLLNFLRQRQGHFSRDMLLSMCQDVCEGMEYLERNSFIHRDLAARNCLVNEAGVVKVSDFGMARYVLDDQYTSSSGAKFPVKWCPPEVFNYSRFSSKSDVWSFGVLMWEIFTEGRMPFEKNTNYEVVTMVTRGHRLHRPKLATKYLYEVMLRCWQERPEGRPSLEDLLRTIDELVECEETFGR"
,no binding,"BTBD17 (protein, UniProt Q9DB72 29-478) AQRADVGGEAAGTAINHSHMLLQRLQDLLRQGNASDVILRVQAVGTDEVRAFHTHRLLLGLHSELFRELLSNQSEVMLRESRDCAAVFDKFIRYLYCGELTVLLAQAIPLHRLATKYRVASLQRGVADYMRAHLAGGVGPAVGWYHYAVSTGDEALRESCLQFLAWNLSAVAGSAEWGAVSPELLAQLLQRSDLVLQDELELFHALEAWLGRARPPPTVAERALRAIRYPMIPPAQLFQLQARSAALARHGPAVADLLLQAYQFHAASPLHYAKFFHVNGSAFLPRNYLAPAWGAPWVINNPARDDRSTSFQTQLGPSGHDAGRRITWNVLFSPRWLPVSLRPVYADAAGTALPAARPEDGRPRLVVTPASSGGDAAGVSFQKTVLVGARHQGRLLVRHAYSFHQSSEEAGDFLAHADLQRRNSEYLVENALHLHLIVKPVYHTLIRTPS"
